Data as given in PubChem BioAssay AID1259308 (NCATS, 2017).
Here is one part, drawn at random, of about 59,000 deposited reagents. About 1,510 of them (2.6%) were called active. 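Calls use total luciferase alone and ignore viability, so some active siRNAs may act by altering cell number.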 The numbers tell different reagents against one gene apart. No sequences are given here.

Aim: 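Genes whose loss raises luciferase production in HEK293 cells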 (primary screen)
Cell system: human HEK293 embryonic kidney cells stably expressing firefly luciferase (HEK-CMV-Luc2-Hygro)
Knock-down reagent: single siRNA against human genes, 0.8 pmol siRNA per well
Time to read-out: 72 h
Measured: 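Reporter luminescence and viable-cell signal on separate replicate plates, given as percent of non-targeting control and median/MAD z-scores, plus per-cell luciferase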
Reading the numbers: total luciferase, z-score and total luciferase, % of control: higher = more reporter protein produced; luciferase per cell, z-score: higher = more reporter output per viable cell; viable cells, % of control: higher = more viable cells
Rule for the call: 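Active when the median/MAD z-score for overall luciferase is greater than 3; a gene was taken forward for validation with new siRNAs if at least two of its three siRNAs passed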
Meaning of the calls: active = raised luciferase; inactive = no rise

no.	gene knocked down	reagent	total luciferase, z-score	total luciferase, % of control	luciferase per cell, z-score	viable cells, % of control	Outcome
1	ARFGEF2	1	0.367	89.2	0.749	81.8	inactive
2	ARFGEF2	2	0.0576	83	-0.071	94.5	inactive
3	ARFGEF2	3	-1.91	44	-1.69	76.7	inactive
4	PYROXD2	1	0.903	99.8	1.46	76	inactive
5	PYROXD2	2	1.35	109	1.22	88.1	inactive
6	PYROXD2	3	0.17	85.3	-0.212	101	inactive
7	OR4F4	1	-0.0547	80.8	-0.295	97.6	inactive
8	OR4F4	2	-0.994	62.1	-1.59	106	inactive
9	OR4F4	3	0.165	85.2	0.562	82.1	inactive
10	CKM	1	0.633	94.5	0.761	86.4	inactive
11	CKM	2	0.443	90.7	0.00712	101	inactive
12	CKM	3	-1.1	60.1	-0.112	69.1	inactive
13	COX7A2L	1	-0.811	65.8	-1.01	95.9	inactive
14	COX7A2L	2	-0.341	75.1	-0.811	104	inactive
15	COX7A2L	3	0.271	87.3	-0.498	111	inactive
16	TAS1R2	1	0.793	97.7	0.759	89.4	inactive
17	TAS1R2	2	0.893	99.7	0.711	92.3	inactive
18	TAS1R2	3	0.875	99.3	0.479	97.8	inactive
19	CRH	1	-0.38	74.3	-0.0775	84.8	inactive
20	CRH	2	-0.0104	81.7	-0.267	97.9	inactive
21	CRH	3	-0.77	66.6	-0.18	78	inactive
22	ATP2B4	1	0.0763	83.4	-0.485	106	inactive
23	ATP2B4	2	-0.138	79.1	-0.196	93.1	inactive
24	ATP2B4	3	-0.0741	80.4	-1.16	122	inactive

Sorted by “viable cells, % of control” (descending): some entries from above.
gene knocked down	reagent	total luciferase, z-score	total luciferase, % of control	luciferase per cell, z-score	viable cells, % of control	Outcome
COX7A2L	3	0.271	87.3	-0.498	111	inactive
COX7A2L	2	-0.341	75.1	-0.811	104	inactive
